# Measured values published in patent US20080281526A1, “Methods For Molecular Toxicology Modeling” (priority 2004, published 2008).
# System: rat liver tissue
# Conditions: in vivo
# Description: From the nucleic acid hybridization data, a prediction score is calculated for that sample and compared to a reference score from a toxicity reference database according to the following equation. The sample prediction score=ΣwiR^FC^i. “i” is the index number for each gene in a gene expression profile to be evaluated. “wi” is the PLS weight (or PLS score, see Table 2 for an exemplary list of PLS scores for a general kidney toxicity model) for each gene. “R^FC^i” is the RMA fold-change value for the i^th gene, as determined from a normalized RMA matrix of gene expression data from the sample (described above). The PLS weight multiplied by the RMA fold-change value gives a gene regulation score for each gene, and the regulation scores for all the individual genes are added to give a prediction score for the sample.
# To establish a toxicity prediction score cut-off value for a toxicity model, the true-positive and false positive rates for each possible score cut-off value are computed, using the scores from all tox and non-tox samples in the training set. […]
# The 100 training samples were used to train the weights in the conversion algorithm. This step is important because it provides for the quantitative aspect of the conversion. […]
# Test samples were evaluated using the trained conversion algorithm. […]
compound,measurement,value
"CCCCc1oc2ccccc2c1C(=O)c1cc(I)c(OCCN(CC)CC)c(I)c1 [Amiodarone, amiodarone]",number of test samples predicted as toxic out of the total number of samples for that compound,2/3
